# Measurements as given in the supplement of paper PMC7666118.
# Chains of the proteins cited; added tags and fusions are not shown. Lines headed by an entry give the natural chain unless they say otherwise; changes in a name come on top.
# UniProt Q9UJS0: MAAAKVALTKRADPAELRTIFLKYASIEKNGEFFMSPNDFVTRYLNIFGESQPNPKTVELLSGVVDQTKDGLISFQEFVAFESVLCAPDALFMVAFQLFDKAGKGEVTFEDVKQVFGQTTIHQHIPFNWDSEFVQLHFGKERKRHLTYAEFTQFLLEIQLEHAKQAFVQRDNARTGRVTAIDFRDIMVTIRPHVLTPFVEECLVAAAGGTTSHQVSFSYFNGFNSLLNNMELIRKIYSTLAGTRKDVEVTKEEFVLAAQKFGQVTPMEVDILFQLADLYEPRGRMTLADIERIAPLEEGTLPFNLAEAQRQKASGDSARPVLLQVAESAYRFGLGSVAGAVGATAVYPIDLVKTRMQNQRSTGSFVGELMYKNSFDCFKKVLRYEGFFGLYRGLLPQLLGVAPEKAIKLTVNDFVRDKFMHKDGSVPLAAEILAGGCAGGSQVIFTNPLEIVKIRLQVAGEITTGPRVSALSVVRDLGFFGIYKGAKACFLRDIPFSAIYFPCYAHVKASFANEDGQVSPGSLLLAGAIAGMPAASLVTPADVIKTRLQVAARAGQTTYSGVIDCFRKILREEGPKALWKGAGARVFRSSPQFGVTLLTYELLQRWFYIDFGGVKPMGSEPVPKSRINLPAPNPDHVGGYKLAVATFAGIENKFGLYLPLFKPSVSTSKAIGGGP
# UniProt Q9Y2D2: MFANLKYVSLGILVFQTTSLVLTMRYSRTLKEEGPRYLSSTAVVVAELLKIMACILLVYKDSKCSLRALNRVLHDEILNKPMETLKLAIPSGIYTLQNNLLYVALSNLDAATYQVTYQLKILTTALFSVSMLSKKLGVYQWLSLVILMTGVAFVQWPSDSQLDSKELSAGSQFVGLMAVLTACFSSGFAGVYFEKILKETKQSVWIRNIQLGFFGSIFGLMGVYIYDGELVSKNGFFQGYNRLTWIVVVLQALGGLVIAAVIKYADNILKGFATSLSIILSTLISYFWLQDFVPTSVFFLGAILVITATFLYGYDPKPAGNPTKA
# UniProt O00400: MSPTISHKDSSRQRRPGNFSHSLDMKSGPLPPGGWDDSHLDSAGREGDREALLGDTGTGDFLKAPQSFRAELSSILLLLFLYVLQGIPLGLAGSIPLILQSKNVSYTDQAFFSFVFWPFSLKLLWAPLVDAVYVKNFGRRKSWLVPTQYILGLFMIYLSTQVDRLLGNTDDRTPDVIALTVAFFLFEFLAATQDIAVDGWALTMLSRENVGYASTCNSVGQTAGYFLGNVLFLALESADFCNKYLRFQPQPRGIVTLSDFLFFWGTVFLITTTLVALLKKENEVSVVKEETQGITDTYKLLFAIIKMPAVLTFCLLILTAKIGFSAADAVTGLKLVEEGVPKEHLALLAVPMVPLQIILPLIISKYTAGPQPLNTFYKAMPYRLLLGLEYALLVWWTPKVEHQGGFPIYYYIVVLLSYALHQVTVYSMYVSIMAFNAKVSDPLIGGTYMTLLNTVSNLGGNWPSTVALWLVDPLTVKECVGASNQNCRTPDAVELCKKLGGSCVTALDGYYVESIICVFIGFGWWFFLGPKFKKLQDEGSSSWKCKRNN
# UniProt P63208, whole entry: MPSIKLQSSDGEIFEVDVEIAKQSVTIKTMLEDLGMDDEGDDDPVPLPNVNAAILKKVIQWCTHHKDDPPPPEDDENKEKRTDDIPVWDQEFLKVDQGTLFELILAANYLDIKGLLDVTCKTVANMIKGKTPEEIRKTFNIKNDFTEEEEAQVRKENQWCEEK
# UniProt O00560: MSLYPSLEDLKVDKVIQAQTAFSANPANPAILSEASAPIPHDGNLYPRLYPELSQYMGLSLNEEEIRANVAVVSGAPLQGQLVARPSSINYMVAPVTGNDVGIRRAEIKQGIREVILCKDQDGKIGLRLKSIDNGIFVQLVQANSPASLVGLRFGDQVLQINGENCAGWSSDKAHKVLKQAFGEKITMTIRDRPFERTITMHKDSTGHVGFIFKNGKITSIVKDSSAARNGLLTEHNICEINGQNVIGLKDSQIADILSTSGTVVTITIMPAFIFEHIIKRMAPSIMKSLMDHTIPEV
# UniProt Q8IUQ4: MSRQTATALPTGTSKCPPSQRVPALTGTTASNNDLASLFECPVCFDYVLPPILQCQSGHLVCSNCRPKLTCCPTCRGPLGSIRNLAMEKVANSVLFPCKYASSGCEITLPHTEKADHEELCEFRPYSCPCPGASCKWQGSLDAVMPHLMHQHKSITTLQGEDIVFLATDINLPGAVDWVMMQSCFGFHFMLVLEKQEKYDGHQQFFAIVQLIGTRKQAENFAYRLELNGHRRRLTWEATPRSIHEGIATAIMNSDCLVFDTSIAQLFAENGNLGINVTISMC
# UniProt Q9BY12: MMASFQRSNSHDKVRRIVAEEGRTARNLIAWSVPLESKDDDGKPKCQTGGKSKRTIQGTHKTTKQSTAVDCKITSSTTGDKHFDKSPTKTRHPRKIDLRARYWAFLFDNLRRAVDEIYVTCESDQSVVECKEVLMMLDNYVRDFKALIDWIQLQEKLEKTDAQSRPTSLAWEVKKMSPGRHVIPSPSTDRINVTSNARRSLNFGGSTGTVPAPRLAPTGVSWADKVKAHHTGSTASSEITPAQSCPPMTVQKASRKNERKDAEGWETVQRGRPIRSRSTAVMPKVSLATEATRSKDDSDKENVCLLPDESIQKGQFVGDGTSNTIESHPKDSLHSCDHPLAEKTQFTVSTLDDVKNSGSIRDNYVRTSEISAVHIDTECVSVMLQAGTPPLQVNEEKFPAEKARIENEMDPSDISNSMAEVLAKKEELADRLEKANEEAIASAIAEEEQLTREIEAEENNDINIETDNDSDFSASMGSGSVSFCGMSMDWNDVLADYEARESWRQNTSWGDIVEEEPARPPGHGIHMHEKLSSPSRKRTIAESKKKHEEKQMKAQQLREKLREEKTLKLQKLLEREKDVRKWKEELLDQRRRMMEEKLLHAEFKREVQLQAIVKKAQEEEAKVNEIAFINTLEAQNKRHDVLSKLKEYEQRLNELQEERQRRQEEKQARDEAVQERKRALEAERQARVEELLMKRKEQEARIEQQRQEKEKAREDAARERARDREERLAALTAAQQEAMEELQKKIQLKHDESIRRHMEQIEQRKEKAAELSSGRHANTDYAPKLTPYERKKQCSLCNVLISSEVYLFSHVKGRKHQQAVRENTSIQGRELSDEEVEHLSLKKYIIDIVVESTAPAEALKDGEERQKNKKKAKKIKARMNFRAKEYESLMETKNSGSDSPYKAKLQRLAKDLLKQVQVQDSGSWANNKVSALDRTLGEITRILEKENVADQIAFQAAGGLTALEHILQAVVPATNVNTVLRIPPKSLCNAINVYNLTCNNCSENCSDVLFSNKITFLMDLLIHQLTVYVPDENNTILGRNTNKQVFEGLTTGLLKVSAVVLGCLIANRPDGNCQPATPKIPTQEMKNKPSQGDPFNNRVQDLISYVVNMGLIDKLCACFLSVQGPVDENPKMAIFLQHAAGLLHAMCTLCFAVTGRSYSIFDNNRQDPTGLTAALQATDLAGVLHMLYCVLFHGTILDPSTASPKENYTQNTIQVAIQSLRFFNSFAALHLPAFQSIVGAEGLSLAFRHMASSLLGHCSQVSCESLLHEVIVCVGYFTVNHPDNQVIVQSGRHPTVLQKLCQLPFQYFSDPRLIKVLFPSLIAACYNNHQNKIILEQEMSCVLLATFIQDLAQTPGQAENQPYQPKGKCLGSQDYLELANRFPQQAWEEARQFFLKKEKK
# UniProt P23246: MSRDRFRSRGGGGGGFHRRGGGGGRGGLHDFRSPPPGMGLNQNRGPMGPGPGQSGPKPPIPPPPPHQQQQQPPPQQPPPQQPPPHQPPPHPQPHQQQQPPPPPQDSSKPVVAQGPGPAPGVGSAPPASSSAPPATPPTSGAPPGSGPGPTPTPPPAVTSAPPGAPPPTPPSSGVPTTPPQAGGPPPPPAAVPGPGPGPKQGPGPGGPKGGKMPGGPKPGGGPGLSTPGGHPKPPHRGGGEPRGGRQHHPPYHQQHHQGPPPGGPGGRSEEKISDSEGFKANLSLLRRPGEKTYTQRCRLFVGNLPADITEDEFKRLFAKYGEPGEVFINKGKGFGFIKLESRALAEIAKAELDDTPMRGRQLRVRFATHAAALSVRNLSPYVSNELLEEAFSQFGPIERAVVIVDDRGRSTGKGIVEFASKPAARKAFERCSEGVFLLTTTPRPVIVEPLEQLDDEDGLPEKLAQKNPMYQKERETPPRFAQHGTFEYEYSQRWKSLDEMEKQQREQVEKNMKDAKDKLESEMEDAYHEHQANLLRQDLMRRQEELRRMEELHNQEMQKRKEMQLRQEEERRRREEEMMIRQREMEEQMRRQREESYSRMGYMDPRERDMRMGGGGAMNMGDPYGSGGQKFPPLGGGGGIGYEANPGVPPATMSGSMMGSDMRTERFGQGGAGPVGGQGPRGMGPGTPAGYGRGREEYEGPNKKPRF
# UniProt P07093: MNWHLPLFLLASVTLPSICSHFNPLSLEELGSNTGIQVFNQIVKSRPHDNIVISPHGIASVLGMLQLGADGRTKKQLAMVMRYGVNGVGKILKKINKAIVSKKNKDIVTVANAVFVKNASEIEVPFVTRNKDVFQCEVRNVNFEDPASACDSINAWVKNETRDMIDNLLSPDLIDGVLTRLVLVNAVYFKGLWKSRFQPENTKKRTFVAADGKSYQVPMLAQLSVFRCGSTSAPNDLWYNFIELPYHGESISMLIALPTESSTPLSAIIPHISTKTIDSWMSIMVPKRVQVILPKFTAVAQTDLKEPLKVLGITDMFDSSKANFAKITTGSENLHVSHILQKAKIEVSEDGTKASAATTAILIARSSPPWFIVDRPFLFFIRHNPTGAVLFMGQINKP
# UniProt Q15019: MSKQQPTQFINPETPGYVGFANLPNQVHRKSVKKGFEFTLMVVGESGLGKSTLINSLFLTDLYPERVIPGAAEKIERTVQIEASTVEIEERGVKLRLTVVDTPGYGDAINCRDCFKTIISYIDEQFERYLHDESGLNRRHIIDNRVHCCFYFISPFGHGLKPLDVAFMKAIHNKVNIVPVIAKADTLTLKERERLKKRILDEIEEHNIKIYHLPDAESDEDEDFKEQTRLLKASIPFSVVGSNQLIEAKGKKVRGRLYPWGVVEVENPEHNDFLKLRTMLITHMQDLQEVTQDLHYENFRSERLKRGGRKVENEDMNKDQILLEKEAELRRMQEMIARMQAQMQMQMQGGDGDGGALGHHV
# UniProt O75746: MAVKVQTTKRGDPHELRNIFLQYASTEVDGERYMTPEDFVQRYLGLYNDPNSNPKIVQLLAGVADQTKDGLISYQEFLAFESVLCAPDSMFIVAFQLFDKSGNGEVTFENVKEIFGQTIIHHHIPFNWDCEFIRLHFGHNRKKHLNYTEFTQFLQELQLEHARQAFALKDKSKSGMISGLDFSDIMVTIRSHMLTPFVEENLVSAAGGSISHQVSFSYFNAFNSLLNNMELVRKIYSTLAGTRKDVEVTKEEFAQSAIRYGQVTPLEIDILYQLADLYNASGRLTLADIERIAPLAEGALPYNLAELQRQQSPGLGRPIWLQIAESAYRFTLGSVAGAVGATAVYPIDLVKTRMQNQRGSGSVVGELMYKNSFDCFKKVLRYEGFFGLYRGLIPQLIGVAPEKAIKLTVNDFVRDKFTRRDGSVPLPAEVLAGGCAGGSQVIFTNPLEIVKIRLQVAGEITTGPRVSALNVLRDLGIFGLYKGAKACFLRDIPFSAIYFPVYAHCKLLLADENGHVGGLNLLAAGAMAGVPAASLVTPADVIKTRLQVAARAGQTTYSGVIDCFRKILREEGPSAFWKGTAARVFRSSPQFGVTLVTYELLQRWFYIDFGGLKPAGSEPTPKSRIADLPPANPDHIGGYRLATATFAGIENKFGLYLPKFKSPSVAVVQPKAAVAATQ
# UniProt Q9Y3L3: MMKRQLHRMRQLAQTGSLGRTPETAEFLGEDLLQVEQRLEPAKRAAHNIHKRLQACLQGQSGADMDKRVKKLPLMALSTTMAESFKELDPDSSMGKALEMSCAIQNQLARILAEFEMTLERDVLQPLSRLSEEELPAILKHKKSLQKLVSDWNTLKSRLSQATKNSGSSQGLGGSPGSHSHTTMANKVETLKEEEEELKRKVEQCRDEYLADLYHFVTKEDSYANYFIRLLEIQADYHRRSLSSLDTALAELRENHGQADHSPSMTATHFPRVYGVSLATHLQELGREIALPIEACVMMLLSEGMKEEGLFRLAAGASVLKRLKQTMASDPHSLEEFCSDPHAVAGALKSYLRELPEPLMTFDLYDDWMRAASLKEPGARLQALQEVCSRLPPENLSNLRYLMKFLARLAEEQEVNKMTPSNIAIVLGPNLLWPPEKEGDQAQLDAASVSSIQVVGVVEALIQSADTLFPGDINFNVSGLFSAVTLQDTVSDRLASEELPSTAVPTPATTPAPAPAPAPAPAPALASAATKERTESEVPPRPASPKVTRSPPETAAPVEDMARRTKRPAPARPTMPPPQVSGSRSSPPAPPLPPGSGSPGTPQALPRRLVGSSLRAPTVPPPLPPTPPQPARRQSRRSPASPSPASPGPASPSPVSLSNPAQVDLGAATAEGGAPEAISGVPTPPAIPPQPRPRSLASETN
# The other results are listed elsewhere or left out.
# Compound: COc1ccc(Cn2ccc3ccc(C(=O)NO)cc32)cc1
# Test: dose-dependent thermal stabilisation call (2D-TPP, DLPTP, 10% FDR) (binary (1 = stabilised)); higher = stabilised by the compound
# Conditions: system: HL-60 intact cells; concentration range 0.04-10 µM
row,Target,dose-dependent thermal stabilisation call
1,SFRS11 (UniProt Q05519),inactive: 0
2,SLC25A13 (UniProt Q9UJS0),active: 1
3,SLC25A1 (UniProt P53007),active: 1
4,SLC7A11 (UniProt Q9UPY5),inactive: 0
5,SLC2A13 (UniProt Q96QE2),inactive: 0
6,SLC35A3 (UniProt Q9Y2D2),inactive: 0
7,SEC62 (UniProt Q99442),inactive: 0
8,SH3GL1 (UniProt Q99961),inactive: 0
9,SLC33A1 (UniProt O00400),inactive: 0
10,SKP1 (UniProt P63208),inactive: 0
11,SDCBP (UniProt O00560),inactive: 0
12,SIAH1 (UniProt Q8IUQ4),inactive: 0
13,SKAP2 (UniProt O75563),inactive: 0
14,SHPRH (UniProt Q149N8),inactive: 0
15,SLC4A7 (UniProt Q9Y6M7),inactive: 0
16,SLAIN1 (UniProt Q8ND83),inactive: 0
17,SGTB (UniProt Q96EQ0),inactive: 0
18,SLC6A6 (UniProt P31641),inactive: 0
19,SFRS17A (UniProt Q02040),inactive: 0

# Reformatted: entries from further up.
row | Target | dose-dependent thermal stabilisation call
1 | SFRS11 (UniProt Q05519) | inactive: 0
3 | SLC25A1 (UniProt P53007) | active: 1
4 | SLC7A11 (UniProt Q9UPY5) | inactive: 0
7 | SEC62 (UniProt Q99442) | inactive: 0
9 | SLC33A1 (UniProt O00400) | inactive: 0
13 | SKAP2 (UniProt O75563) | inactive: 0
14 | SHPRH (UniProt Q149N8) | inactive: 0
15 | SLC4A7 (UniProt Q9Y6M7) | inactive: 0
16 | SLAIN1 (UniProt Q8ND83) | inactive: 0
18 | SLC6A6 (UniProt P31641) | inactive: 0

# (listing goes on)

row,Target,dose-dependent thermal stabilisation call
1,SEL1L (UniProt Q9UBV2),inactive: 0
2,SERPINC1 (UniProt P01008),inactive: 0
3,SCAPER (UniProt Q9BY12),inactive: 0
4,SLC20A2 (UniProt Q08357),inactive: 0
5,SFPQ (UniProt P23246),inactive: 0
6,SHARPIN (UniProt Q9H0F6),inactive: 0
7,SF3B5 (UniProt Q9BWJ5),inactive: 0
8,SLC38A7 (UniProt Q9NVC3),inactive: 0
9,SLC25A40 (UniProt Q8TBP6),inactive: 0
10,SLC16A7 (UniProt O60669),inactive: 0
11,SFXN1 (UniProt Q9H9B4),active: 1
12,SERPINE2 (UniProt P07093),inactive: 0
13,SEPT2 (UniProt Q15019),inactive: 0
14,SLC25A12 (UniProt O75746),active: 1
15,SH3BP1 (UniProt Q9Y3L3),inactive: 0
16,SLC39A8 (UniProt Q9C0K1),inactive: 0
17,SDHB (UniProt P21912),inactive: 0
18,SAR1A (UniProt Q9NR31),inactive: 0
